# From publication PMC8954350, “Non-Canonical Cannabinoid Receptors with Distinct Binding and Signaling Properties in Prostate and Other Cancer Cell Types Mediate Cell Death” (International Journal of Molecular Sciences, 2022)
# Several values for one entry are separate records, joined by “and”; a condition that tells them apart may be missing. Equal entries are not always repeated.
# Assays:
# [1] = molecular target: CBRs expressed in PC-3 membranes; format: binding, human
# Method: (§1) The assay was performed as previously detailed. […] All binding reactions were conducted in triplicate, in a final volume of 1 mL, and, following mixing, were incubated for 20 min in a 37 °C water bath to achieve equilibrium. After incubation, reactions were terminated by rapid vacuum filtration and processed for radioactivity, as detailed in Section 4.5.1.
# (§2) Curve-fitting and all statistical analyses were performed using GraphPad Prism® v8.0g (GraphPad Software, Inc.; San Diego, CA, USA). […] For CBR screening studies, a one-sample t-test was performed to determine differences from 100% (e.g., to quantify compounds producing displacement), followed by a one-way ANOVA and Tukey’s post hoc tests to compare displacement produced by all drugs. […] To compare specific CBR affinity (Ki) between ligands, non-linear regression analysis was employed to determine experimental IC50 values from competition receptor binding assays, which were then converted to Ki values using the Cheng–Prusoff equation [35]. […] For LDH release, ATP-dependent cell viability and JC-1 staining assays, drug effects were first analyzed by a one-sample t-test to determine differences from 0 or 100% (vehicle), followed by a one-way ANOVA and Dunnett’s post hoc test to compare all means. […]
# [2] = molecular target: CBRs expressed in DU-145 membranes; format: binding, human
# Method: as §1, §2
# [3] = system: CBRs expressed in DU-145 membranes; format: binding, human; remark: listed apart in the source
# Method: (§3) The assay was conducted as previously detailed. […] All binding reactions were conducted in triplicate, in a final volume of 1 mL, and, following mixing, were incubated for 20 min in a 37 °C water bath to achieve equilibrium. After incubation, reactions were terminated by rapid vacuum filtration through Whatman GF/B glass fiber filters (Brandel; Gaithersburg, MD, USA), followed by three washes of 4 mls of ice-cold filtration buffer (50 mM Tris, pH 7.4, and 0.05% bovine serum albumin). Samples were punched out from filter papers into scintillation vials, to which 4 mls of ScintiverseTM-BDR cocktail scintillation fluid (Fisher Scientific; Hampton, NH, USA) was added. Filters were incubated at room temperature for 24 h in scintillation fluid, vortexed, and radioactivity (measured as DPMs) was quantified via a liquid scintillation spectrophotometer (Tri Carb 2100 TR Liquid Scintillation Analyzer, Packard Instruments, Meriden, CT, USA).
# (§4) These experiments were conducted to screen well-characterized cannabinoid ligands with high affinity for canonical CB1 and/or CB2Rs for binding to CBRs expressed in prostate cancer cells lines, as detailed in [33]. […] After incubation, reactions were terminated by rapid vacuum filtration and processed for radioactivity, as detailed in Section 4.5.1.
# DU-145 cells = experiment: LDH cytotoxicity, DU-145 cells; format: cell-based, human; conditions: 24 h
# Method: DU-145 cytotoxicity (cell death) was assessed as previously described using the LDH-Cytotoxicity Colorimetric Assay Kit II (BioVision Research Products; Milpitas, CA USA, #K313) to quantify lactate dehydrogenase (LDH) release from damaged or dying cells. DU-145 cells were seeded at a density of 130 × 10^3 cells/well in 6-well plates and maintained in an incubator at 37 °C with 5% CO2 for 24 h. […] Treated cells were incubated for an additional 24 h, followed by quantification of LDH release. LDH released from damaged or dying cells oxidizes lactate to produce NADH which then reacts with a water-soluble tetrazolium salt (WST) reagent to produce a yellow-colored product. The intensity of the yellow-colored product was detected with an OD reading at 450 nm (quantified by a BioTek microplate reader interfaced with SoftMax Pro 5.4.5 software; Winooski, VT, USA) and was directly proportional to the amount of LDH released. Percent cytotoxicity was calculated according to the manufacturer’s protocol as the following: % Cytotoxicity=OD450 Supernatant/Supernatant+Lysate
# [4] = system: CBRs expressed in PC-3 membranes; experiment: [^3H]WIN-55,212-2 competitive binding screen, PC-3 membranes; design: species or system human; conditions: 1 μM ligand, 1 nM radioligand
# Method: as §3, §4
compound,measurement,setting,value
Cc1c(C(=O)NN2CCCCC2)nn(-c2ccc(Cl)cc2Cl)c1-c1ccc(I)cc1 [AM-251],Ki,[1],≤ 100 nM and 58.7 nM
same,Ki,[2],≤ 100 nM and 69.5 nM
same,"displacement of [^3H]WIN-55,212-2",[3],greater than 50%
same,LDH release,DU-145 cells; 10 μM,"neither low (10 μM) nor high (50 μM) concentrations of WIN-55,212-2, AM-251 or AM-630 altered LDH release"
same,increase in LDH release,DU-145 cells; 50 μM,"neither low (10 μM) nor high (50 μM) concentrations of WIN-55,212-2, AM-251 or AM-630 altered LDH release"
same,attenuation of GW-405833 (50 μM)-induced LDH release,DU-145 cells; co-incubation with 10 μM ligand,almost completely blocked GW-405833 induced LDH release
same,"displacement of [^3H]WIN-55,212-2",[4],greater than 50%
